Results taken from article PMC10163288.
Some of the results follow.

B1: il2ra_site2_3nfp_sap_26_mot_HHH_b1_06800_000000145_0001_39_52_H_._d0d4bb967d3a74cfb2645cd31ab01004_0001_af2_0001_0000100002_0000001_0_0001 (protein)
chain: SSSSSEAFRRSFRLVEAMIESLRSRGDEEYLQEIEELLEEAEEKKDPRLLLEAFKLALEAYSSSS
B2: il2ra_site2_2erj_normal_mot_HHH_b1_01129_af2_000000281_0001_18_33_H_._HHH_b2_07712_0001_0000200009_0000001_0 (protein)
chain: SSSSSSDEEEVEELLEEAKHITDLREAYRLLNEALRIASESQNEELLELILKVLEELASSSSSSS
B3: il2ra_site1_1z92_sap_26_mot_HHH_b1_02756_000000071_0001_20_37_H_._HHH_b1_08606_af2_0001_0000100004_0000001_0_0001 (protein)
chain: SSSSDQAREFLERLARSLVKNLELTGDPRARERLEMLLRDAEMNGDEEVVEFAREQLEELSSSSS
B4: il2ra_site1_2b5i_normal_mot_HHH_b1_01949_af2_000000041_0001_1_19_H_._HHH_b1_01257_af2_0001_0000300039_0000001_0 (protein)
chain: SSSSDEEEVQELFRRASELFRNGNPEEAEKVLREALELAEELNDENSERDLRFMLEQIRGSSSSS
B5: il2ra_site1_1z92_normal_mot_HHH_b2_06478_af2_000000093_0001_42_55_H_._707acc9d051fe3a4acad5ad22db0e630_0001_1_af2_0001_0000300018_0000001_0_af2pred_0001_af2pred … (protein)
chain: TEEDLEITREFAGGDPEKILKVLERAARDAGLLSPEELKRLEEEIREAIEKNDPRVEELLKELAN
B6: il2ra_site2_2erj_sap_23_mot_c2bf78bdce995293a161f7082e24b401_0001_000000177_0001_37_51_H_._b683b9da3abebe05867c2ae609ec11aa_0001_1_0001_0000300012_0000001_0_000 … (protein)
chain: SSSSSEVEEEVERLLEEARKIPDEEEAWKVVAEAAFLAARNNDDELLKEIMEIAQELLSKSSSSS
B7: il2ra_site1_1z92_normal_mot_934a834d9b8b770824478def2ff2f329_0001_af2_000000088_0001_15_30_H_._62303bca1dd225ec3edff4317a74685f_0001_af2_0001_0000400021_0000001 … (protein)
chain: SLLEELEELLKKLNTPAARALIRLLRRAIEEGQLDPEIILRDLHRAAEFLNDPEVVEVIEEILRK
B8: il2ra_site1_3nfp_normal_mot_e80b558ee5422d85aa46efdc370d0602_0001_af2_000000114_0001_54_65_H_._HEEHE_2247_0002_0000400019_0000001_0_af2pred_0001_af2pred (protein)
chain: DRQEILQEDAELISKVAGVTSVHVEVENGHVTVTVEADNRRARALLRILREAAKIAGLEVEITIE
B9: il2ra_site1_2b5i_sap_11_mot_HHH_b1_05017_af2_000000115_0001_1_18_H_._HHH_b1_00710_af2_0001_0000500014_0000001_0_0001 (protein)
chain: SSSSDEIDEKVQELFREASELWRNGNPEEAEKVVEEALRIAEEGGDENLVRQLRRMLEFLRSSSS
B10: il2ra_site1_1z92_sap_11_mot_HHH_b1_00499_000000281_0001_1_17_H_._HHH_b1_06817_af2_0001_0000300040_0000001_0_0001 (protein)
chain: SSSSDRAREWAEKLARAALRLLKLTGNPRIRERIEMLLRDLRMNGNPEAVEEIEKILEELRSSSS
B11: il2ra_site1_2b5i_normal_mot_0e5a94e4a5addaac739760efb25f0f5d_0001_000000289_0001_18_32_H_._78af2605e42daec4205f2e2222766fb7_0001_af2_0001_0000300010_0000001_1_a … (protein)
chain: SLEKEIEDLANEIEDRELRTLVVDILYRISLLPDPEERERLLEELLEALKSNDRERLEELRERAK
B12: il2ra_site1_1z92_sap_17_mot_0152819cca26c81f8eead0111e16a660_0001_000000247_0001_36_50_H_._HHH_b1_04373_0001_0000400037_0000001_0_0001_af2pred_0001_af2pred (protein)
chain: SSSSSSDEEIEEIVKELVERFNLSEEEEKILERDAKQALEQGFSEKSIKRALRAAAERLSSSSSS
B13: il2ra_site2_3nfp_normal_mot_HHH_b1_06589_000000230_0001_37_50_H_._HHH_b1_08566_0001_0000300024_0000001_0_af2pred_0001_1_af2pred_swapped (protein)
chain: SSSSDEEEEEIRELIEEARKLLENGNPEEAKKVLEKASRLAIELGDAELFAEIAELLLKVLSSSS
B14: il2ra_site1_3nfp_sap_16_mot_06fb79ff5b0635ea054e4773f75fe636_0001_af2_000000209_0001_53_63_H_._HEEHE_0001_0001_0000200015_0000001_0_0001 (protein)
chain: DQEEIVARFIHHAVKQNSPTLLRKVLEDFERWAGDPEEAKRLFEEYLEEAGLSPEEIERAKELVE
B15: il2ra_site1_2b5i_sap_23_mot_0e5a94e4a5addaac739760efb25f0f5d_0001_000000208_0001_18_32_H_._ems_3hC_1310_0001_0001_0000100003_0000001_0_0001 (protein)
chain: SSSSSEAHERAAEIVDELAEEFGLDSEELNALVRLATRLIWRGVSPEEIEEILEEFARQLSSSSS
B16: il2ra_site1_3nfp_normal_mot_HHH_b1_02721_af2_000000134_0001_39_56_H_._HHH_b2_00677_af2_0001_0000100009_0000001_0 (protein)
chain: SSSSSDTEEAFQLDRELLEALRKGDEELIEELLRELEELAKELNDELAERLVEQFKELLKSSSSS
B17: il2ra_site2_3nfp_sap_17_mot_HHH_b2_00232_000000252_0001_23_39_H_._3c441df7748365c26d0f48519610b406_0001_0001_0000300033_0000001_0_0001 (protein)
chain: SSSSSSTFLFEVVRELAEELGLSEEQLHELVQLAAELSRRGVSLEEIEEILEEVARKLSSSSSSS
B18: il2ra_site1_2b5i_normal_mot_HHH_b2_01684_af2_000000128_0001_1_17_H_._6f78d487b2114cba39c339ce838aa349_0001_1_af2_0001_0000500025_0000001_0_af2pred_dldesign_0_af … (protein)
chain: SEEEELRALAEAAARGDKAALKKLSEIARKADEDPEYREKLERMIEILDELGQPKLAALLRRGLE

What follows are binders tested against il2ra, P01589 (assay: yeast display titration).

Apparent Kd, inactive:
B1 no binding seen
B2 no binding seen
B3 no binding seen
B4 no binding seen
B5 no binding seen
B6 no binding seen
B7 no binding seen
B8 no binding seen
B9 no binding seen
B10 no binding seen
B11 no binding seen
B12 no binding seen
B13 no binding seen
B14 no binding seen
B15 no binding seen
B16 > 802 nM
B17 no binding seen
B18 no binding seen
